Data published in article PMC10765524.
No constants are given. Whether binding was seen depends on the method and setting. Some entries that bind do so weakly or less than the wild type.

Molecular target: T1, B55 loopless (B55LL) (UniProt P63151)
T1 sequence: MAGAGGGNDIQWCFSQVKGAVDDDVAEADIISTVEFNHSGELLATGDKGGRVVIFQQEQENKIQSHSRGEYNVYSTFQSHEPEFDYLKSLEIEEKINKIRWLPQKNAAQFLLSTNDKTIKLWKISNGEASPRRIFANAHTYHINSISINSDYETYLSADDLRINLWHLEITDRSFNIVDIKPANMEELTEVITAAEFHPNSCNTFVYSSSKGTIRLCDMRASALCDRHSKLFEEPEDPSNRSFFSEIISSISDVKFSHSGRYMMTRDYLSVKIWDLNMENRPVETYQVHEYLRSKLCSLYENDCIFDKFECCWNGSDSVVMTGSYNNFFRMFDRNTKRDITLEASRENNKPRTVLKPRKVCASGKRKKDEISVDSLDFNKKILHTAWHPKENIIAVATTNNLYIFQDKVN
Test: NMR titration; competition: complex of a 15N-labelled protein with B55LL formed first, then an excess of an unlabelled second protein added; 2D 1H,15N HSQC; both purified

binding: binds
B1: p107_(612–687) (domain or fragment, UniProt P28749 612-687)
chain: MPMSPLMHPRVKEVRTDSGSLRRDMQPLSPISVHERYSSPTAGSAKRRLFGEDPPKEMLMDKIITEGTKLKIAPSS
